These are yes or no findings as the source states them, for the method shown. In cells and extracts the contact can be indirect. These calls come from enrichment with a bait or labelling near it, and not all partners need be listed.

The chains behind the UniProt entries cited, without tags or fusion partners. Residues count along the entry.
UniProt Q8S926, residues 1-118: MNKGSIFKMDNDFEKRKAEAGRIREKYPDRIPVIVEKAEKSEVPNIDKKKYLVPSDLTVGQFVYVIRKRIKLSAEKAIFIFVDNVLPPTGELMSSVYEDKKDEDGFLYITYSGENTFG

The labels stand for the following.
T1: mCherry-ATG8A (Arabidopsis thaliana) (UniProt Q8LEM4)
T1 sequence: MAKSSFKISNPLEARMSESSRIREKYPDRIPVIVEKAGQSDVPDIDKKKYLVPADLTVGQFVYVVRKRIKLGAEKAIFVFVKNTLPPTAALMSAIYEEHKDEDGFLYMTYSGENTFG

T2: IMPDH1-Clover (Arabidopsis thaliana) (UniProt P47996)
T2 sequence: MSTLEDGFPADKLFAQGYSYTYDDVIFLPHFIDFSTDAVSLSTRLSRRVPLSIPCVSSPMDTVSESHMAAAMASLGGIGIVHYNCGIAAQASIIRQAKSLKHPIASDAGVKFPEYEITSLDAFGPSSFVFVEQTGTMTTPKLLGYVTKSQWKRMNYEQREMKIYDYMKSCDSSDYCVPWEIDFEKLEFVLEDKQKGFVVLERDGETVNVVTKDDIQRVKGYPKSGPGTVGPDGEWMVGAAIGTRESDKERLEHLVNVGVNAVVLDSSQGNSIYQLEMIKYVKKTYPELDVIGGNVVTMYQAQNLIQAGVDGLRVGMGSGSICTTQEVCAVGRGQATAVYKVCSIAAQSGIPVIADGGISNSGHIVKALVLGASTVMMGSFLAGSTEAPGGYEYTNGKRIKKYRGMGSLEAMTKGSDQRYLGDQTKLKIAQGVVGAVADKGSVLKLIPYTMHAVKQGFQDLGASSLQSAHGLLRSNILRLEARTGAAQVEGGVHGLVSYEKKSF

T3: NIT1-Clover (Arabidopsis thaliana) (UniProt P32961)
T3 sequence: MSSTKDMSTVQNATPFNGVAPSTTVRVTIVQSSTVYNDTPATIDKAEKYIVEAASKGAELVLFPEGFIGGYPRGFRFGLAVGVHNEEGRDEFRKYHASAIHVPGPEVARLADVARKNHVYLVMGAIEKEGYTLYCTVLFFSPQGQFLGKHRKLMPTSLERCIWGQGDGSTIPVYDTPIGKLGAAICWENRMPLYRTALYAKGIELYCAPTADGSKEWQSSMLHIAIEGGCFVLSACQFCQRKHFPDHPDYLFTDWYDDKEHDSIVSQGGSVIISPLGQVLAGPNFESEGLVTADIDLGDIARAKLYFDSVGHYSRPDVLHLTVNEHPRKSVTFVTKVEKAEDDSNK

B1: Inosine Monophosphate Dehydrogenase1 (IMPDH1, AT1G79470), endogenous (enzyme, UniProt P47996 1-503)
chain: T2 sequence
B2: ATG7 (protein, UniProt Q94CD5 1-697)
chain: MAEKETPAIILQFAPLNSSVDEGFWHSFSSLKLDKLGIDDSPISITGFYGPCGHPQVSNHLTLLSESLPLDEQSLIASTSHGNRNKCPVPGILYNTNTVESFNKLDKQSLLKAEANKIWEDIQSGKALEDPSVLPRFLVISFADLKKWSFRYWFAFPAFVLDPPVSLIELKPASEYFSSEEAESVSAACNDWRDSDLTTDVPFFLVSVSSDSKASIRHLKDLEACQGDHQKLLFGFYDPCHLPSNPGWPLRNYLALIRSRWNLETVWFFCYRESRGFADLNLSLVGQASITLSSGESAETVPNSVGWELNKGKRVPRSISLANSMDPTRLAVSAVDLNLKLMRWRALPSLNLNVLSSVKCLLLGAGTLGCQVARTLMGWGIRNITFVDYGKVAMSNPVRQSLYNFEDCLGRGEFKAVAAVKSLKQIFPAMETSGVVMAIPMPGHPISSQEEDSVLGDCKRLSELIESHDAVFLLTDTRESRWLPSLLCANANKIAINAALGFDSYMVMRHGAGPTSLSDDMQNLDINKTNTQRLGCYFCNDVVAPQDSMTDRTLDQQCTVTRPGLAPIAGALAVELLVGVLQHPLGINAKGDNSSLSNTGNNDDSPLGILPHQIRGSVSQFSQITLLGQASNSCTACSETVISEYRERGNSFILEAINHPTYLEDLTGLTELKKAANSFNLDWEDDDTDDDDVAVDL
B3: Nitrilase1 (NIT1, AT3G44310), endogenous (enzyme, UniProt P32961 1-346)
chain: T3 sequence
B4: ATG8A (detected by mass spectrometry in the Clover affinity purifications) (protein, UniProt Q8LEM4 1-117)
chain: T1 sequence
B5: IMPDH2, endogenous (enzyme, UniProt Q9SA34 1-502)
chain: MSGFEDGFSAEKLFSQGYSYTYDDVIFLPHFIDFSTDAVSLSTRLSKRVPLSIPCVASPMDTVSESHMAAAMAALGGIGIVHYNCDIDTQASVIRHAKSLQVPIASDAVFKCPEHQIGSVDDFGPSSFVFVSQTGTLTPKLLGYVSKSEWSSMKDDQKEVKIYDYMKSCENKDYYVPWDIDLDKIEAVLEDKQKGFVVLEKEGETVNVVTKDDVERVKGYPKLGSGTVGADKKWMVGAAIGTRESDKERLEHLVKAGANVVVLDSSQGNSIYQLEMIKYVKNTYPELDVVGGNVVTMYQAENLIKAGVDGLRVGMGSGSICTTQEVCAVGRGQATAVYKVSTLAAQHGVPVIADGGISNSGHIVKALVLGASTVMMGSFLAGSTEAPGAYEYRNGRRVKKYRGMGSLEAMTKGSDQRYLGDTAKLKIAQGVVGAVADKGSVLKFIPYTMHAVKQGFQDLGASSLQSAHELLRDNTLRLEARTGAAQIEGGIHGLVSYEKKSF
B6: NIT3, endogenous (enzyme, UniProt P46010 1-346)
chain: MSSTEEMSSVKNTTQVIGVDPSSTVRVTIVQSSTVYNDTPATLDKAEKFIVEAASKGAKLVLFPEAFIGGYPRGFRFGLAVGVHNEEGRDEFRNYHASAIKVPGPEVERLAELAGKNNVHLVMGAIEKDGYTLYCTALFFSPQGQFLGKHRKVMPTSLERCIWGQGDGSTIPVYDTPIGKIGAAICWENRMPLYRTALYAKGIEIYCAPTADYSLEWQASMIHIAVEGGCFVLSAHQFCKRREFPEHPDYLFNDIVDTKEHDPTVSGGGSVIISPLGKVLAGPNYESEGLVTADLDLGDIARAKLYFDVVGHYSKPDIFNLTVNEHPKKPVTFMTKVEKAEDESNK
B7: NIT2, endogenous (enzyme, UniProt P32962 1-339)
chain: MSTSENTPFNGVASSTIVRATIVQASTVYNDTPATLEKANKFIVEAASKGSELVVFPEAFIGGYPRGFRFGLGVGVHNEEGRDEFRKYHASAIKVPGPEVEKLAELAGKNNVYLVMGAIEKDGYTLYCTALFFSPQGQFLGKHRKLMPTSLERCIWGQGDGSTIPVYDTPIGKLGAAICWENRMPLYRTALYAKGIELYCAPTADGSKEWQSSMLHIAIEGGCFVLSACQFCLRKDFPDHPDYLFTDWYDDKEPDSIVSQGGSVIISPLGQVLAGPNFESEGLITADLDLGDVARAKLYFDSVGHYSRPDVLHLTVNEHPKKPVTFISKVEKAEDDSNK

One assay concerns the target mCherry-ATG8E (Arabidopsis thaliana) (UniProt Q8S926). The assay can be described thus: affinity purification with mass spectrometry.
In the case of B1, the binding entry is “binds”.
Take B2: the binding result is reported as “binds”.
In the case of B3, the binding result is given as “binds”.

A further assay addresses T1, mCherry-ATG8A (Arabidopsis thaliana). The assay can be described thus: affinity purification with mass spectrometry.
Take B1: the binding result is on record as “binds”.
Same read-out and setting: with B2 the entry was “binds”.
For B3, the binding result was “binds”.

Another assay addresses T2, IMPDH1-Clover (Arabidopsis thaliana). The assay can be described thus: affinity purification with mass spectrometry.
In the case of B4, the binding result is “binds”.
Still for that read-out and setting: with B5 the entry was “binds”.

The next assay addresses T3, NIT1-Clover (Arabidopsis thaliana). The experiment in a line: affinity purification with mass spectrometry.
On to B1, for which the binding entry was “binds”.
Take B4: the binding entry is reported as “binds”.
Still for that read-out and setting: the same measure for B5: “binds”; for B6: “binds”; for B7: “binds”.

The values are drawn from doi:10.1101/2024.05.06.590709 (bioRxiv, 2024).
